# Screening data, single-dose tests

Chains of the proteins cited; added tags and fusions are not shown. Residues count along the entry.
UniProt P9WPC5, whole entry: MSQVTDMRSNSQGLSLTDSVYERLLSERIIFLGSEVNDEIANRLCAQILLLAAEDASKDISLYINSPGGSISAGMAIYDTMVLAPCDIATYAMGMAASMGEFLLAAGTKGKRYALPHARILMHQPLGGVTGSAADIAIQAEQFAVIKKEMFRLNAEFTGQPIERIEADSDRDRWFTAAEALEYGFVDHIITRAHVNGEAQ
UniProt P9WPC3, whole entry partner: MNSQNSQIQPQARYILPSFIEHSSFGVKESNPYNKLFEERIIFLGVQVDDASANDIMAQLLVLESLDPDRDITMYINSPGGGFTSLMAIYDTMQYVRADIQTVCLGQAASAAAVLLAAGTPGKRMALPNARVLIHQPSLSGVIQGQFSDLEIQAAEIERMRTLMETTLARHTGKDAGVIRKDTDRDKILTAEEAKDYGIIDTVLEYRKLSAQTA
UniProt P9WNZ1, whole entry: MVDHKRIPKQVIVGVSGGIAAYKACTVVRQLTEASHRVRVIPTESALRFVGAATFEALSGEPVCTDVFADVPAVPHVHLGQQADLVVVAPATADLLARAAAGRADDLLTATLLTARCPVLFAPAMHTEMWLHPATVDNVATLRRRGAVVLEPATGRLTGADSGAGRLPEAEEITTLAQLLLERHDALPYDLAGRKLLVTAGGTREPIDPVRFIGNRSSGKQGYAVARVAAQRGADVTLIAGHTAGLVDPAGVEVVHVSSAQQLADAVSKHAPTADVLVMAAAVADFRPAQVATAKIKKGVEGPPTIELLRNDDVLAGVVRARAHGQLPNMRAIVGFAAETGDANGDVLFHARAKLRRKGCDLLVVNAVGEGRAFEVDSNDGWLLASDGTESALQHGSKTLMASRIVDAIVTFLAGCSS
UniProt Q8IDJ8, 1-583: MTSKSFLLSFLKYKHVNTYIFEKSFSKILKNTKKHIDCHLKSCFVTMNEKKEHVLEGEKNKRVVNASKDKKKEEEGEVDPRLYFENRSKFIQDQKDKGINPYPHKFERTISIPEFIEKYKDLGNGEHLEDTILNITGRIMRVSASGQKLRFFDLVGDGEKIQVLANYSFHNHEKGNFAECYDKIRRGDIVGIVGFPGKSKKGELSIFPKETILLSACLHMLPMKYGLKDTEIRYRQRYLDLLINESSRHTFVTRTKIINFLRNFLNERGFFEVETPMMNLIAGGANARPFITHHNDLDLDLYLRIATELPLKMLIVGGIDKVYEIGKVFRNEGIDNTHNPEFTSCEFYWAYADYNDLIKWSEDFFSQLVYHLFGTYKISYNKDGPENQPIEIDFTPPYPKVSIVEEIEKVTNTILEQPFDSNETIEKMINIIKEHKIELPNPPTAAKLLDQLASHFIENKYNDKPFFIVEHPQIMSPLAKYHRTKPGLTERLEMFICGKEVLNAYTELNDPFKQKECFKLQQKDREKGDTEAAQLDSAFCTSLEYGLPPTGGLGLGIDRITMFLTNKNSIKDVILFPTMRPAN

A: 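ClpP1P2, Mycobacterium tuberculosis (UniProt P9WPC5 and UniProt P9WPC3). Protease assay of ClpP1P2, read by the AMC dye that it sets free. Concentration: 50 µM. Direction is inferred from only a few compounds that gave an IC50; most scored high, so higher reads as stronger inhibition. Most other retested compounds had strongly negative values. Size under these conditions: about 69,000 compounds, about 10 of them at 50% or above in at least one test.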
B: 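Coenzyme A biosynthesis protein CoaBC, Mycobacterium tuberculosis (UniProt P9WNZ1). Enzyme assay of CoaBC with a phosphate dye (Biomol Green) read at 650 nm. Concentration: 30 µM. Direction is inferred from only a few compounds that gave an IC50; most scored high, so higher reads as stronger inhibition. Most strong results did not repeat in a second test. Size under these conditions: about 67,000 compounds, about 40 of them at 50% or above in at least one test.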
C: 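Enzyme assay of the cytosolic lysyl-tRNA synthetase in 384-well plates, read by luminescence. Target: Lysine-tRNA ligase, Plasmodium falciparum 3D7 (UniProt Q8IDJ8). Tested at 30 µM. Direction is inferred from only a few compounds that gave an IC50; most scored high, so higher reads as stronger inhibition. Of about 69,000 compounds tested this way, about 49 (0.071%) reached 50% or more in at least one test.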

The filed quantity is “Percent Effect” (%). How 0% and 100% were set is not recorded. Most values in the screen are low, and negative values occur. This is an unselected part of the compounds tested. A dash means the value is not listed here; it may have been measured.

| SMILES | A | B | C |
|---|---|---|---|
| `CS(=O)(=O)N1CCC(NC(=O)COc2ccc3ccccc3c2)CC1` | -9.426 | -6.971 | 0.4957 |
| `Nc1nnnn1NCc1cccc(Cl)c1Cl` | -14.78 | -0.2551 | 8.125 |
| `O=C(c1cnn2c1OCCC2)N1CCC2(CC1)OCCO2` | -10.88 | 2.662 | 2.33 |
| `NC(=O)c1cccc(CN2CCOC(Cn3cccn3)C2)c1` (stereo unspecified) | -4.568 | -1.269 | 6.367 |
| `O=C(c1cnc2[nH]c(=O)[nH]c(=O)c2c1)N1CCCC1C1CCCC1` (stereo unspecified) | -5.334 | 5.976 | 2.277 |
| `CC(C)(O)CCc1cccc(C(=O)N[C@@H](CO)C(N)=O)c1` | -22.2 | -1.118 | -0.2194 |
| `CC(NCC1CCN(CCO)CC1)c1ccc(C(F)(F)F)cc1` (stereo unspecified) | -8.812 | -52.57 | -0.4894 |
| `Cn1ccnc1-c1cccc(NC(=O)NCC(=O)NC(C)(C)C)c1` | -5.343 | 8.087 | -4.375 |
| `O=C1CCC2(CCN(Cc3nccs3)CC2)CN1CCCO` | -17.38 | 10.68 | 4.806 |
| `Cn1nccc1NC(=O)Cn1ccc(-c2ccc3c(c2)OCO3)n1` | -1.515 | 0.241 | 2.517 |
| `O=C(c1ccsc1)N1CCO[C@@H]2CN(Cc3ccccn3)CC[C@@H]2C1` | 6.678 | -4.575 | -3.38 |
| `CCCN(CCOC)c1nc(C)nc2sccc12` | -6.466 | 18.69 | -0.9593 |
| `CNC(=O)c1ccc2c(c1)C1(CCN(C(C)C)CC1)C(=O)N2` | -7.57 | -4.691 | -3.125 |
| `COCC1CCN(S(=O)(=O)N2C[C@@H](C)[C@](O)(C3CC3)C2)CC1` | -11.86 | -0.8547 | -0.4341 |
| `Cc1ccccc1CN(C)C(=O)CN1CCCCC1Cn1cncn1` (stereo unspecified) | -14.26 | 4.019 | 1.987 |
| `O=C(C1CCC1)N1CCO[C@@H]2CNC[C@@H]21` | 6.593 | -11.68 | 3.577 |
| `Cc1occc1CNC(=O)C1CCN(C(=O)OC(C)(C)C)C1` (stereo unspecified) | -20.08 | 2.89 | 5.759 |
| `CCOCCN1CCN(CCC(=O)N2CCCCC2)CC1C` (stereo unspecified) | 7.604 | -0.3745 | 7.649 |
| `Cc1cnn(CC(C)NCc2ccncc2)c1` (stereo unspecified) | 13.28 | 4.198 | 2.603 |
| `CC(=O)OC1CN(c2nc3c(Cl)cccc3s2)C1` | -10.9 | -2.672 | 3.867 |
| `COCC(c1ccccn1)N(C)C(=O)c1cc(-c2ccccc2O)n[nH]1` (stereo unspecified) | 0.7149 | 9.153 | -2.219 |
| `CN(C)C1CCCN(C(=O)NCc2ccccc2-n2cccn2)C1` (stereo unspecified) | -4.202 | 0.2611 | 0.02012 |
| `CC(O)c1cn(C2CCN(C(=O)C3(C)CCCCC3)CC2)nn1` (stereo unspecified) | -0.9524 | 3.106 | -0.3811 |
| `COc1ccccc1OCC(=O)NS(=O)(=O)c1ccc(C)s1` | -3.533 | 1.318 | 6.015 |
| `Cn1cnc2c1CCN(Cc1csc(-c3ccc(F)cc3)n1)C2` | -17.96 | 0.7895 | -0.8768 |
| `CC(C)(C)c1cn2c(n1)C(CNCc1cnn3ccccc13)CCC2` (stereo unspecified) | -1.54 | -3.808 | 7.191 |
| `CO[C@H]1CN(Cc2cc(Cn3cncn3)c(C)cc2C)CC[C@H]1N` | 6.521 | -8.894 | 1.846 |
| `O=S(=O)(Nc1nccs1)c1cc(Cl)cc2c1OCC2` | -0.4452 | -1.927 | 4.156 |
| `COC1CCN(C(=O)Nc2ccccc2)CC(=O)N(C)c2ccccc21` (stereo unspecified) | -2.936 | 1.695 | 5.086 |
| `CS(=O)(=O)N1CCO[C@@H]2CN(C(=O)N3CCCC3)CC[C@@H]2C1` | -6.691 | 0.9901 | 5.552 |
| `Cc1ccsc1CN(CCCN(C)C)Cc1ccccn1` | -4.659 | 1.456 | 0.7556 |
| `CN(C)C(=O)CCCS(=O)(=O)Cc1cc(Cl)c2c(c1)OCCO2` | 10.72 | 7.025 | 7.54 |
| `Cc1cc(C)cc(CCC(=O)NC(C)c2nnn[nH]2)c1` (stereo unspecified) | -11.91 | 3.085 | 1.691 |
| `O=C(NCCc1coc(-c2ccc(F)cc2)n1)NCC1CCOC1` (stereo unspecified) | -4.626 | 1.869 | 3.643 |
| `Cc1nc(CN(C)S(=O)(=O)c2ccc(F)cc2Br)no1` | -3.681 | 0.2433 | 5.572 |
| `COCC(=O)N1C[C@H]2CNC[C@@]2(C(=O)NCc2c(C)noc2C)C1` | -0.391 | 2.664 | 7.907 |
| `CC(NC(=O)N1CCC(CC(N)=O)CC1)c1csc2ccccc12` (stereo unspecified) | 4.67 | 3.259 | 9.939 |
| `CCC(=O)N1CCCN(C(=O)C2SCCc3sccc32)CC1` (stereo unspecified) | -5.701 | -1.984 | -0.4795 |
| `CCOc1nn(CC)cc1-c1nnc(SCc2cccnc2)n1CC` | 8.526 | -1.684 | 6.28 |
| `COCCCNC(=O)CN(C)C1CCCN(c2cccnn2)C1` (stereo unspecified) | -34.89 | 2.427 | -0.07428 |
| `O=C1CCNc2ncc(-c3ccccc3Cl)cc2CN1C1CC1` | -5.745 | 6.053 | 1.309 |
| `O=C(CCS(=O)(=O)C1CCCC1)N1CCC(O)(C(F)(F)F)C1` (stereo unspecified) | -3.699 | - | -2.363 |
| `CC1(C)CCN(Cc2ccccc2-c2nc(C(C)(C)C)cc(=O)[nH]2)C1` | -2.655 | 0 | 1.905 |
| `COCc1cc(O)nc(C2CCCN(Cc3cc(OC)ccc3F)C2)n1` (stereo unspecified) | -2.77 | 1.944 | -1.998 |
| `COc1ccccc1CN1CCC(c2nn(CCN)c3nccnc23)C1` (stereo unspecified) | -2.408 | 9.046 | -1.301 |
| `Cn1cc(CCNCc2cc(Cl)c3c(c2)OCCO3)cn1` | -21.91 | 6.138 | 1.121 |
| `Cc1cccc(-c2nccn2C2CC(=O)N(C(C)C)C2)n1` (stereo unspecified) | 1.05 | -4.113 | -1.009 |
| `CCc1cnc(CN(C)C(=O)NC2CCN(C)C2=O)s1` (stereo unspecified) | -4.812 | -0.2439 | 3.265 |
| `O=C(c1ccoc1)N1C[C@@H]2[C@@H](C1)OCC(=O)N2Cc1cccnc1` | 10.9 | 3.579 | -2.445 |
| `Cc1noc([C@@H](C)NCc2cccc(Cl)c2)c1C(=O)O` | -3.639 | 0.1965 | 0.1734 |
| `CCN(C)CC(C)Cn1cnc(-c2ccccc2)c1-c1cncn1CC` (stereo unspecified) | -9.614 | -0.2475 | 2.182 |
| `CC(=O)N1CCC2(CC1)C(=O)N(C)c1ccc(F)cc12` | 0.1099 | 4.187 | 3.981 |
| `CC(C)CC1(C(=O)NCc2nncn2C2CC2)CCC1` | -7.318 | 1.463 | 6.053 |
| `Cc1cc(-c2cnn(CCNC(=O)c3cccnc3)c2C2CC2)on1` | -0.1164 | -6.944 | 4.846 |
| `CCC(CO)N(Cc1cccs1)C(=O)CNS(=O)(=O)c1cccs1` (stereo unspecified) | -14.74 | -0.2457 | 0.9897 |
| `NC(=O)Cn1cc(NC(=O)N2CCN(c3ccccc3)CC2)cn1` | -29.32 | -1.535 | 2.228 |
| `CCOCCS(=O)(=O)c1nnc(NCCOC)s1` | -1.252 | 12.83 | -4.07 |
| `Cc1cc(CCC(=O)NCc2nccn2C)ccc1Br` | -13.83 | 4.132 | -5.1 |
| `CCNC(=O)CCC(=O)NC1(c2cccc(C(F)(F)F)c2)CCC1` | 1.822 | -2.02 | 1.867 |
| `Cc1ccc2c(c1)C(=O)NCC1(CCN(C(=O)c3cnccn3)CC1)O2` | -10.91 | 0.8674 | 1.392 |

The first 5 entries again:

| SMILES | A | B | C |
|---|---|---|---|
| `CS(=O)(=O)N1CCC(NC(=O)COc2ccc3ccccc3c2)CC1` | -9.426 | -6.971 | 0.4957 |
| `Nc1nnnn1NCc1cccc(Cl)c1Cl` | -14.78 | -0.2551 | 8.125 |
| `O=C(c1cnn2c1OCCC2)N1CCC2(CC1)OCCO2` | -10.88 | 2.662 | 2.33 |
| `NC(=O)c1cccc(CN2CCOC(Cn3cccn3)C2)c1` (stereo unspecified) | -4.568 | -1.269 | 6.367 |
| `O=C(c1cnc2[nH]c(=O)[nH]c(=O)c2c1)N1CCCC1C1CCCC1` (stereo unspecified) | -5.334 | 5.976 | 2.277 |

From ChEMBL document CHEMBL3988442, “University of Dundee, Small-Polar-MMV Screening Library” (2021).